Binding data for two molecules are collected here from publication PMC4824898.

Experiment [1] concerns the target calcium-binding domain (EF) of S. pombe α-actinin (Schizosaccharomyces pombe) (UniProt O13728). As to the kind of experiment: SEC; gel filtration on Superdex 200 10/300GL in 50 mM Tris-HCl, pH 7.6, 200 mM KCl (also Sephacryl S-400HR in 25 mM sodium phosphate, pH 7.6, 150 mM NaCl); elution compared with reference proteins; dimer formation judged from apparent size; both purified.

The target in experiment [2] is calcium-binding domain of S. pombe α-actinin with C-terminal 6xHis-tag (EF-his) (Schizosaccharomyces pombe) (UniProt O13728). The description is as above.

Results are given in words; binding and its absence hold for the method and conditions named. For some assays here: Where a sequence is shown, tags or fusion partners need not be part of it.

B1: calcium-binding domain (EF) of S. pombe α-actinin (domain or fragment, UniProt O13728 477-621)
chain: EKRTLSKQELDGITKVFRHFEKKKSNMLNEVEFYAALASLGLVYDTEEGTALFHRAANSEEGVTYERFTEIVMEELEDRDSARQVLYAFCDVADGKSYVTSDDLLRSQVRPNIVKFLECNMNKHSEGLDYLTWIKQLLAEDKEIV
In the case of B1, the binding result in experiment [1] was “no binding”.

B2: calcium-binding domain of S. pombe α-actinin with C-terminal 6xHis-tag (EF-his) (domain or fragment, UniProt O13728 477-621)
chain: EKRTLSKQELDGITKVFRHFEKKKSNMLNEVEFYAALASLGLVYDTEEGTALFHRAANSEEGVTYERFTEIVMEELEDRDSARQVLYAFCDVADGKSYVTSDDLLRSQVRPNIVKFLECNMNKHSEGLDYLTWIKQLLAEDKEIV
With B2, in experiment [2], the binding entry is on record as “no binding”.
